Results are given in words; binding and its absence hold for the method and conditions named. In cells and extracts the contact can be indirect. A yes stands for co-enrichment or nearness to the bait. Other partners may have been found.
Key:
[1] = target: HA-tagged B-Raf^WT expressed in MCF-10A cells (UniProt P15056); assay: affinity purification with mass spectrometry; anti-HA agarose IP of HA-tagged B-Raf^WT from MCF-10A cells against empty vector cells
[2] = target: endogenous B-Raf of MEFs (mouse (endogenous in MEFs)) (UniProt P28028); assay: affinity purification with mass spectrometry; IP of endogenous B-Raf from MEFs against IgG control IPs; SILAC-based MS
[3] = target: HA-tagged B-Raf^WT re-expressed in Braf deficient MEFs (human) (UniProt P15056); assay: affinity purification with mass spectrometry; anti-HA IP of HA-tagged B-Raf^WT or B-Raf^D594A from complemented Braf-/- MEFs expressing H-Ras^G12V::ER^TM; with or without 4-HT and 10 uM sorafenib; SILAC-based MS against vector control or B-Raf^WT IPs
[4] = target: HA-tagged B-Raf^D594A re-expressed in Braf deficient MEFs (human) (UniProt P15056); assay: as above
[5] = target: B-Raf (cell system of the purification not given) (not stated (chicken, human or mouse B-Raf)) (UniProt P15056); assay: affinity purification with mass spectrometry; IP of endogenous or HA-tagged B-Raf; the text does not tell from which of the four cell systems
[6] = target: HA-tagged chicken B-Raf (chicken) (UniProt Q04982); assay: affinity purification with mass spectrometry; anti-HA IP of HA-tagged chicken B-Raf from complemented B-Raf/Raf-1 deficient DT40 cells against empty vector cells; label-free and SILAC-based MS; two biological replicates

The chains behind the UniProt entries cited, without tags or fusion partners. Where a name states a change or a piece, a line headed by the entry shows the natural chain unless it says otherwise.
UniProt P15056: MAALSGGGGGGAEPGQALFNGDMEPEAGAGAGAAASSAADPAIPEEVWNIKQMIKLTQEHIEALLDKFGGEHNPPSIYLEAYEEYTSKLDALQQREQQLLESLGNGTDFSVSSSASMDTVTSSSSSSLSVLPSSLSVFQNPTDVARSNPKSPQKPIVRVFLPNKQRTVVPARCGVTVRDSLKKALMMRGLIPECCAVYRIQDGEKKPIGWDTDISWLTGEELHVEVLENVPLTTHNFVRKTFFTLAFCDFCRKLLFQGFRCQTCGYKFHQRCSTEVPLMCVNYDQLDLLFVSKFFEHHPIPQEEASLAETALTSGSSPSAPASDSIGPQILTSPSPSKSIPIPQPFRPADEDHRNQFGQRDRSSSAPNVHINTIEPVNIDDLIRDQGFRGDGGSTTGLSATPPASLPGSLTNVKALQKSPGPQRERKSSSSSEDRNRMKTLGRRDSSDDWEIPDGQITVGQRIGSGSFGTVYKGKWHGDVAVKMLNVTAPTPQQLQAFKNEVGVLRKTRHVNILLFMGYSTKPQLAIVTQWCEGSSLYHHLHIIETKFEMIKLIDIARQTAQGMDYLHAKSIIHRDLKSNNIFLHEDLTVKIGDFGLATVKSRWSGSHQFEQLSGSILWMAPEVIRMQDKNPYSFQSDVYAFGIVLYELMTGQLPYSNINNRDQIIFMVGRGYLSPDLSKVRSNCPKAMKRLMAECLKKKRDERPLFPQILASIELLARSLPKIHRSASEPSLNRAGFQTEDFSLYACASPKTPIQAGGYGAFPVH
UniProt P28028: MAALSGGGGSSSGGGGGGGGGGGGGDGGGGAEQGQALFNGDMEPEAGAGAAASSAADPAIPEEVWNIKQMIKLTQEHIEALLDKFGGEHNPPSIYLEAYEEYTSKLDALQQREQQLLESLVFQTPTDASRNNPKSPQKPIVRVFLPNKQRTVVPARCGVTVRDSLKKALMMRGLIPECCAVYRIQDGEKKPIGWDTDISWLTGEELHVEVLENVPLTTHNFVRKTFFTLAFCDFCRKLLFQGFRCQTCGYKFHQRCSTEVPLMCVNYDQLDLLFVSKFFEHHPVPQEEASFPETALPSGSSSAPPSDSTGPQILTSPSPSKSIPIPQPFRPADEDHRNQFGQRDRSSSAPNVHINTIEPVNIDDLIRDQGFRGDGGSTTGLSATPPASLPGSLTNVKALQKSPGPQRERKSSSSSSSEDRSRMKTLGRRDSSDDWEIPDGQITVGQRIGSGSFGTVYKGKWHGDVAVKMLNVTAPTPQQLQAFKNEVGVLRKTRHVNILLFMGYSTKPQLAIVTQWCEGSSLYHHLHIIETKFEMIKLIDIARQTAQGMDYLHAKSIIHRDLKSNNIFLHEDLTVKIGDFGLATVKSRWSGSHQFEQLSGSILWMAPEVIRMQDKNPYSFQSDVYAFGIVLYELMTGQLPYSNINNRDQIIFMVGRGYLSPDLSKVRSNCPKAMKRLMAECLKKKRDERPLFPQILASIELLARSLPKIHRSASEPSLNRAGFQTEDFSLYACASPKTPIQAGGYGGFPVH
UniProt P46940: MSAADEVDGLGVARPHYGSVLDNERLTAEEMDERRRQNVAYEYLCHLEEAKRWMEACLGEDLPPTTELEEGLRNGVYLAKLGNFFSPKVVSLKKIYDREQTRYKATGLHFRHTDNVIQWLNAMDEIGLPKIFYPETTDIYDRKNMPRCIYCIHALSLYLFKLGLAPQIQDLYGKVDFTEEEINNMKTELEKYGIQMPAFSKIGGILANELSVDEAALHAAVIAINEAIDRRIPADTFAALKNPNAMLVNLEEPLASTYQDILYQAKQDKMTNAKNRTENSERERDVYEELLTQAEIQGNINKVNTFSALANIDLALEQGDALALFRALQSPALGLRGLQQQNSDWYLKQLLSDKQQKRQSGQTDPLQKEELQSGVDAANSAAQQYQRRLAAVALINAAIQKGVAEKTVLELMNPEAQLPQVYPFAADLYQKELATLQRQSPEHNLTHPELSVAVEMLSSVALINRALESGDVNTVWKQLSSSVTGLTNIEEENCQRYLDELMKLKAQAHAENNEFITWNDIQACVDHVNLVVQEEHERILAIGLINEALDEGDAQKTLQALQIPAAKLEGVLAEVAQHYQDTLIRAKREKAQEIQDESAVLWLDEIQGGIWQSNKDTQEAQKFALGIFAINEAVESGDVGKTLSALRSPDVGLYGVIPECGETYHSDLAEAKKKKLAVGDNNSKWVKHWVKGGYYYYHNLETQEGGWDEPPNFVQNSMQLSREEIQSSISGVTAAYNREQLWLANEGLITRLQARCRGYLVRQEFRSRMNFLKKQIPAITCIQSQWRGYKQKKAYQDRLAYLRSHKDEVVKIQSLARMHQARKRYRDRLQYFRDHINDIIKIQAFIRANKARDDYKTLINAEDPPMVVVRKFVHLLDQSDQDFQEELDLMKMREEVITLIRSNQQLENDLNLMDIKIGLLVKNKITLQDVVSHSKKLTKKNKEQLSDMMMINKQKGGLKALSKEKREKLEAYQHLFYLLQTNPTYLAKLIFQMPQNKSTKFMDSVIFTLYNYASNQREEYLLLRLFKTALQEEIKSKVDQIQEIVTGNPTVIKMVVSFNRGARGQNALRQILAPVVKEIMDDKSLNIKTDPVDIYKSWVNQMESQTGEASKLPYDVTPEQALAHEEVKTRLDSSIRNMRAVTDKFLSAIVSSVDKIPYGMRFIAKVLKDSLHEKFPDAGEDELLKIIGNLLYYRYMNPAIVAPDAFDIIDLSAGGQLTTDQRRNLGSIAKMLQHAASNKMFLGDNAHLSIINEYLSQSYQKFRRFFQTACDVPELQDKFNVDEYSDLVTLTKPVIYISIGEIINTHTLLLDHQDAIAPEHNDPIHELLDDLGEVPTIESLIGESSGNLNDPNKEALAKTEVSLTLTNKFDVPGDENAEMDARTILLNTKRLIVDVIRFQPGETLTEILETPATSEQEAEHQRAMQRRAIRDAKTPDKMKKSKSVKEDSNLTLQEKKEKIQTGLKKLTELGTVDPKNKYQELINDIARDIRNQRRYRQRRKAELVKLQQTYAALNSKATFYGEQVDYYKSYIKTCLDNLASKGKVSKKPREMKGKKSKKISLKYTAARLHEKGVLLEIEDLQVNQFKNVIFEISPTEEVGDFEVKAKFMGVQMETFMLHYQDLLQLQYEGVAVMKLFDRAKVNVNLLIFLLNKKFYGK
UniProt Q86VI3: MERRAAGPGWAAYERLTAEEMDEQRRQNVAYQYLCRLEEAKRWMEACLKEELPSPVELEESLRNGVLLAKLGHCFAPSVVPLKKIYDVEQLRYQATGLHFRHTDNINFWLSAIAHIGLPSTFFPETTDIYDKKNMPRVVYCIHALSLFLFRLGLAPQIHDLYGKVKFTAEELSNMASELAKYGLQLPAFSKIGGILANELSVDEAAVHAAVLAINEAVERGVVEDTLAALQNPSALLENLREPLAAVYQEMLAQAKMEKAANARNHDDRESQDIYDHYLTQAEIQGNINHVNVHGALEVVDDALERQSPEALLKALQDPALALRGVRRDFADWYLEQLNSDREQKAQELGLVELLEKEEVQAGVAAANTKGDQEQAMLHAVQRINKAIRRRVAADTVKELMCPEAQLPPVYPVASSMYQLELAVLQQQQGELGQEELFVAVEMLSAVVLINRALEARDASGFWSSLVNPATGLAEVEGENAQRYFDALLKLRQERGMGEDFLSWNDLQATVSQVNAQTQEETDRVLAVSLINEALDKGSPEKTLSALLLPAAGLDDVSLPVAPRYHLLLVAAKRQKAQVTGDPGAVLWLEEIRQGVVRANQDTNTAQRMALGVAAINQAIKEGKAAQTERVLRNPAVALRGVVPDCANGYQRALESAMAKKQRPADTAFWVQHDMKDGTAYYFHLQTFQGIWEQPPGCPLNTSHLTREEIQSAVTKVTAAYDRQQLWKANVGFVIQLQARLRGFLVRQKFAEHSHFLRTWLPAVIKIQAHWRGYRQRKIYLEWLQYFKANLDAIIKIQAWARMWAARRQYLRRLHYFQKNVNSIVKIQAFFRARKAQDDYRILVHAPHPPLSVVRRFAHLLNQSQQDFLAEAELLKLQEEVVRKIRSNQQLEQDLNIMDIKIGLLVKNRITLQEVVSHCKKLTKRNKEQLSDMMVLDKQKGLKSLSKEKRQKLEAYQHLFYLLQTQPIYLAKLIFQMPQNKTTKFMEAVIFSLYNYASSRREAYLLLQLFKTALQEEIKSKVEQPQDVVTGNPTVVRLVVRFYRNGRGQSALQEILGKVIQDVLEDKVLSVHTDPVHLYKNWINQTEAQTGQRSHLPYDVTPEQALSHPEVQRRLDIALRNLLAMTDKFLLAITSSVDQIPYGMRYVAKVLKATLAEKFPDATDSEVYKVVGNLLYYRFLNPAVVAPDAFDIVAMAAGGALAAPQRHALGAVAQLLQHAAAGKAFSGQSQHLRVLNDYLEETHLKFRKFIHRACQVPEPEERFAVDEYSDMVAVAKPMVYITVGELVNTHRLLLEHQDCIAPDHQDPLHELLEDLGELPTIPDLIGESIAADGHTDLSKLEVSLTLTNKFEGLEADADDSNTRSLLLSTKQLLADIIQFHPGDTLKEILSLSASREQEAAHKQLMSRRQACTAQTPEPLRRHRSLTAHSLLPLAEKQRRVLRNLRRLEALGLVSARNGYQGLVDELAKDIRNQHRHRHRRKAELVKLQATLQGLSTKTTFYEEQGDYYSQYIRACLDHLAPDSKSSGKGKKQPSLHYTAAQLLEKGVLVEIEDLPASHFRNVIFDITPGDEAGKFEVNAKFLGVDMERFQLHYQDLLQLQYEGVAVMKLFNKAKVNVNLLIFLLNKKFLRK
UniProt P63208: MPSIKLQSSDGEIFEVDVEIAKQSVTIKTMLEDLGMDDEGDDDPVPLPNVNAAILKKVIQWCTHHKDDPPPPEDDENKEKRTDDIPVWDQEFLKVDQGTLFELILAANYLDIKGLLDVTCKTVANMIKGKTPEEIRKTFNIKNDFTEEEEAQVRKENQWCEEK
UniProt Q6U7I1: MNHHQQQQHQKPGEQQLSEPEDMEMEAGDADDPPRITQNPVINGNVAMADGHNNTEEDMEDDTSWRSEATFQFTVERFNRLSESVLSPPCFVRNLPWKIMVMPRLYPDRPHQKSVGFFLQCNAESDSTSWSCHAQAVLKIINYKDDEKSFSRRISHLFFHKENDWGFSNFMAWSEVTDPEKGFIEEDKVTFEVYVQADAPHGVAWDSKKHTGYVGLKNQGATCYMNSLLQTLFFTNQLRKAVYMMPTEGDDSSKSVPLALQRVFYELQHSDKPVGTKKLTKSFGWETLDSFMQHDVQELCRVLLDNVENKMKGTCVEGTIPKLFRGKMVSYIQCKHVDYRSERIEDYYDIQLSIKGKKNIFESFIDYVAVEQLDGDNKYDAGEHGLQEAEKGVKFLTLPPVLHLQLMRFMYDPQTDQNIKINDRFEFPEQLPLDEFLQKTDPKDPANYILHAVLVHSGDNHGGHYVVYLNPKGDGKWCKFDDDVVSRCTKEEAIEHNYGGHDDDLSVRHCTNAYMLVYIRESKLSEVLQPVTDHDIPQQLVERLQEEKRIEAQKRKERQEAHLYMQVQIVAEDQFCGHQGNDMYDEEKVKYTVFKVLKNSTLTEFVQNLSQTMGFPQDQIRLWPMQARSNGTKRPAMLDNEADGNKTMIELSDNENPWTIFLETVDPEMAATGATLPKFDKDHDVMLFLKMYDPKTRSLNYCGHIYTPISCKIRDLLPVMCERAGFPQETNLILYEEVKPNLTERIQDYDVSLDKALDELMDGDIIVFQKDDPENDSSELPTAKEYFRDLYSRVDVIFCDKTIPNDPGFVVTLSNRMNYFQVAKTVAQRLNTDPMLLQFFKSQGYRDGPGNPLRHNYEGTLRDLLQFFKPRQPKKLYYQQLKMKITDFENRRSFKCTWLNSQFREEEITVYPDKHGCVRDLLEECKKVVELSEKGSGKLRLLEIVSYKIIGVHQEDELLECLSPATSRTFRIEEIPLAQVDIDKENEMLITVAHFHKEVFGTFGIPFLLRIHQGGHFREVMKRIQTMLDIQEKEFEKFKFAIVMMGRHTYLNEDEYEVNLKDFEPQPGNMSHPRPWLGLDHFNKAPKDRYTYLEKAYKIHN
UniProt Q13526: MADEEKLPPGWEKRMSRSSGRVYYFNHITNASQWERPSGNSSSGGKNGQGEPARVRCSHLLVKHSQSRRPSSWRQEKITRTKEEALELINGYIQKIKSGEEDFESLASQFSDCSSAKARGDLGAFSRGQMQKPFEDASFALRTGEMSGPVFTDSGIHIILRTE

In the case of “IQGAP1 (human, MCF-10A) (from UniProt P46940 1-1657)”, the binding [1] is reported as “binds”.

For “IQGAP1 (mouse, MEFs) (from UniProt Q9JKF1 1-1657)”, the binding [2] was “binds” and the binding [3] was “binds”.

“IQGAP3 (human, MCF-10A) (from UniProt Q86VI3 1-1631)” was tested, and the binding [1] was “binds”.

In the case of “Myosin 9b (mouse, MEFs) (from UniProt Q9QY06 1-2114)”, the binding [4] is reported as “binds”.

In the case of “Raptor subunit of the mTOR complex (from UniProt Q8N122 1-1335)”, the binding [5] is reported as “binds”.

In the case of Skp1 (from UniProt P63208 1-163), the binding [5] is reported as “binds”.

In the case of “USP7 (chicken, DT40) (from UniProt Q6U7I1 1-1101) (enzyme)”, the binding [6] is reported as “binds”.

With “peptidyl-prolyl-cis/trans-isomerase Pin1 (from UniProt Q13526 1-163) (enzyme)” the binding [5] was “binds”.

“phospholipase D2 (mouse, MEFs) (from UniProt P97813 1-933) (enzyme)” was tested, and the binding [4] was “binds”.

— paper PMC5042004
